Experiment [1] concerns the target GFP-3xFlag-Squ^WT expressed under the native squ promoter (Drosophila melanogaster). Put plainly: co-IP; GFP-3xFlag-Squ (WT or 4A, native promoter) precipitated with anti-FLAG antibodies from ovaries lacking endogenous Squ; blot for Spn-E, 3 biological replicates.
Experiment [2] concerns the target GFP-3xFlag-Squ^4A expressed under the native squ promoter (Drosophila melanogaster). Put plainly: co-IP; co-immunoprecipitation from ovaries expressing Squ^WT or Squ^4A in the spn-E mutant background (no Spn-E).
Experiment [3] concerns the target GFP-3xFlag-Squ^WT expressed under the native squ promoter (Drosophila melanogaster). The description is as above.
The target of experiment [4] is Squash (Squ), endogenous (Drosophila melanogaster (endogenous in ovaries)) (UniProt Q7KT57). Put plainly: co-IP; crosslinking immunoprecipitation: y w ovaries fixed with 0.1% paraformaldehyde, lysate sonicated, endogenous Squ precipitated with anti-Squ antibody and Dynabeads Protein G/A, western blot; also with RNase A (50 ug/mL, 37 C, 30 min) treatment of the lysate; no-antibody negative control.

Protein sequences, listed by entry. Tags and fused reporters are not part of them. Lines headed by an entry give the natural chain unless they say otherwise; changes in a name come on top.
UniProt Q7KT57: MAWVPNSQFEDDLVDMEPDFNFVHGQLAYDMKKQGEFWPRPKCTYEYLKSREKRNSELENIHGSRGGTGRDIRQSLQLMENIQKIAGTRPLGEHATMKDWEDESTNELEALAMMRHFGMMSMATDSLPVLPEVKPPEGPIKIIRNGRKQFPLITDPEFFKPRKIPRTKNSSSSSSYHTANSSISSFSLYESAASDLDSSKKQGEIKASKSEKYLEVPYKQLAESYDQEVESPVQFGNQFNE

We go through 2 molecules from paper PMC13523842.

Results are given in words; binding and its absence hold for the method and conditions named. Binding seen in cells or lysates may run through a third protein. A result given as binding can be weak or reduced; the word gives no strength.

B1: Spindle-E (Spn-E), endogenous (protein, UniProt Q9VF26 1-1434)
chain: MDQEVMDFFDFSKELKRVAAAPQGYISSDPRLMATKFKSSEVPNRELIGTDYVSKIVAKEKCLLNGTLLNEQPQGKRIRTLDDLDTDDEGEETEIRRDDEYYKKFRFNLNRDKNLSIYAKREEILAAINAHPVVIIKGETGCGKTTQVPQYILDEAYKSGKYCNIVVTQPRRIAAISIANRVCQEREWQQNTVCSFQVGLHRPNSLEDTRLLYCTTGVLLNNLINNKTLTHYTHIVLDEVHERDQNMDFLLIVVRRLLATNSRHVKIILMSATIDAKELSDYFTTTNSIPPVITTNHRRKHSIEKFYRDQLGSIIWNEEDVGHQQVPEINKHGYRAAVKIIVIIDNMERKAAIQSRQSYDEALRYGAVLIFLPGIYEIDTMAENLTCMLENDPNIKVSIVRCFSLMTPENQRDVFNPPPPGFRKIILTTNIAESSITVPDVSYVIDFCLAKVKVTDTASSFSSLRLTWASKANCRQRAGRVGRLRSGRVYRMVNKHFYQREMPEFGIPEMLRLPLQNSVLKAKVLNMGSPVEILALALSPPNLSDIHNTILLLKEVGALYLTVDGIYDPLDGDLTYWGTIMSRLPLDTRQSRLIILGYIFNMLEEAIIIAAGLSTPGLFAHEGGRSQLGDSFWMHYIFSDGSGSDLVAIWRVYLTYLNIVENGHDQESAIRWAKRFHVSLRSLKEIHLLVQELRVRCTHLGLIPFPVNPNQMMDDREKAIMLKVIIAGAFYPNYFTRSKESCADTDRNIYQTISGHDPCRTVYFTNFKPAYMGELYTRRIKELFQEVRIPPENMDVTFQEGSQKVFVTFKQDDWIEGSSKYVPVSGRVQSEVYKAVMMRQNRVERPIHIMNPSAFMSYVQQRGIGDVIEGRWIPPTKPLNVELLALPSVFDKTISGSITCIVNCGKFFFQPQSFEECIRNMSEIFNAPQQLRNYVTNASAIAKGMMVLAKRDSYFQRATVIRPENQSNRQPMFYVRFIDYGNCTLLPMQLMRLMPRELTEQYGDLPPRVFECRLAMVQPSSVVSGNNRWSTAANDMLKTVAQCGLIDIEVYSLFNNVAAVLIHMRDGIINDKLVELMLCRRSDEDYMSRKDHDFRLRRQESARNLSTAQRQQINEEYLRSCQLPQDHDLPPPPLEKCKTVVMLKGPNSPLECTMRSITRVGLSKRVNIDHLSVNALLLDADPQDHHDHLIVAHEIAESRNGQTLTARGTTLMPNVQGFGALMVMLFSPTMQLKCNKEGTSYVSVLGGLGCDPDTNEPYFAEHDVLINLDVNILEDDVILINQIRYYIDSVFFNFKEENNPAVSVNERVSIYTQLRSLINRLLCKDRRYIERNMSNADFEWETNPELPLPNEPFGKRAIFPMHSLTELQEEDTGRLVQLRENCSMLHKWRNFEGTLPHMTCKLCNQLLESVPQLRLHLLTILHRDREKQIDYCNQ
Regarding B1, the binding entry in experiment [1] is “binds”.

B2: Ago3, endogenous (protein, UniProt Q7PLK0 1-867)
chain: MSGRGNLLSLFNKNAGNMGKSISSKDHEIDSGLDFNNSESSGERLLSSHNIETDLITTLQHVNISVGRGRARLIDTLKTDDHTSNQFITSESKENITKKTKGPESEAIASENGLFFPDLIYGSKGSSVNIYCNYLKLTTDESKGVFNYEVRFFPPIDSVHLRIKYLNDHKDKLGGTKTFDGNTLYLPILLPNKMTVFISKAEDVELQIRILYKKKEEMRNCTQLYNILFDRVMKVLNYVKFDRKQFDPSRPKIIPLAKLEVWPGYVTAVDEYKGGLMLCCDVSHRILCQKTVLEMLVDLYQQNVEHYQESARKMLVGNIVLTRYNNRTYKINDICFDQNPTCQFEIKTGCTSYVEYYKQYHNINIKDVNQPLIYSIKKSRGIPAERENLQFCLIPELCYLTGLRDEVRSDNKLMREIATFTRVSPNQRQMALNKFYENVSNTPAAQEILNSWGLSLTNNSNKISGRQMDIEQIYFSKISVSAGRSAEFSKHAVTNEMLKVVHLSKWIIIHLRNYRQAATSLLDNMKQACESLGMNISNPTMISLDHDRIDAYIQALRRNITMNTQMVVCICHNRRDDRYAAIKKICCSEIPIPSQVINAKTLQNDLKIRSVVQKIVLQMNCKLGGSLWTVKIPFKNVMICGIDSYHDPSNRGNSVAAFVASINSSYSQWYSKAVVQTKREEIVNGLSASFEIALKMYRKRNGKLPTNIIIYRDGIGDGQLYTCLNYEIPQFEMVCGNRIKISYIVVQKRINTRIFSGSGIHLENPLPGTVVDQHITKSNMYDFFLVSQLVRQGTVTPTHYVVLRDDCNYGPDIIQKLSYKLCFLYYNWAGTVRIPACCMYAHKLAYLIGQSIQRDVAEALSEKLFYL
In the case of B2, the binding entry in experiment [2] is “binds”; in experiment [3], “binds”; in experiment [4], “binds weakly”.
